Measured values published in patent US9284543B2, “Neutral active soluble truncated PH20 polypeptides and uses thereof” (Halozyme, Inc., priority 2008, dated 2016).

Assay: C-terminal sequencing after endoproteinase Asp-N digestion
Details: Asp-N digest
[1] = Lot HUA0505MA (3D35M cells, 100 L)
[2] = Lot HUB0701EB (2B2 cells, 300 L)

Row | Substance | Abundance of C-terminal fragment [1] | Abundance of C-terminal fragment [2]
1 | D28a (DAFKLPPMETEEPQIFY; C-terminal peptide cleaved from rHuPH20 aa 431-447; listed as Homo sapiens) | 0.2% | 1.9%
2 | D28b (DAFKLPPMETEEPQIF; C-terminal peptide cleaved from rHuPH20 aa 431-446; listed as Homo sapiens) | 18.4% | 46.7%
3 | D28c (DAFKLPPMETEEPQI; C-terminal peptide cleaved from rHuPH20 aa 431-445; listed as Homo sapiens) | 11.8% | 16.7%
4 | D28d (DAFKLPPMETEEPQ; C-terminal peptide cleaved from rHuPH20 aa 431-444; listed as Homo sapiens) | 56.1% | 27.8%
5 | D28e (DAFKLPPMETEEP; C-terminal peptide cleaved from rHuPH20 aa 431-443; listed as Homo sapiens) | 13.6% | 6.9%
